This is one part of the list.
Tests used:
Test in all cases: log2 fold change, soluble protein after heating vs DMSO (PISA); higher = thermal stabilisation; K562 cells, 10 uM, 30 min; active = over 0.2 and 3.5 SD of the protein, either way, in both replicates (recomputed)
[1] = compound: C1=CC=C(C=C1)[C@H](COC2=CC3=C(C=C2)NC(=O)N3)NC(=O)C4=CC=CN(C4=O)CC5=CC(=C(C=C5)F)F
Outline: (§1)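 K562 cells at 2×10^6 cells/mL were treated with 10 μM compound for 30 min. Aliquots were heated for 3 min across 48°C-58°C, pooled, and extracted in PBS with 0.5% NP-40 at 4°C; soluble protein was the supernatant after 21,000xg for 90 min. Soluble protein was quantified by TMTpro 16plex LC-MS/MS with channel sums equalised, and reported as log2 fold change in thermal stability against DMSO controls, with values from duplicates.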

The chains behind the UniProt entries cited, without tags or fusion partners. Where a name states a change or a piece, a line headed by the entry shows the natural chain unless it says otherwise.
UniProt Q8NG11: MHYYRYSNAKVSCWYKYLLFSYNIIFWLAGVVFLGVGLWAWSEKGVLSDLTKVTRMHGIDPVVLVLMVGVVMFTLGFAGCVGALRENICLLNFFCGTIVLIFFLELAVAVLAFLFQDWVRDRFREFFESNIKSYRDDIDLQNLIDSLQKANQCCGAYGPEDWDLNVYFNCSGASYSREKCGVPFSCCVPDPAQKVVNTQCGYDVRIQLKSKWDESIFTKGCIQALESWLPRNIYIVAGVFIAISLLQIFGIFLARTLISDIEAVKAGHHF
UniProt Q3KQV9: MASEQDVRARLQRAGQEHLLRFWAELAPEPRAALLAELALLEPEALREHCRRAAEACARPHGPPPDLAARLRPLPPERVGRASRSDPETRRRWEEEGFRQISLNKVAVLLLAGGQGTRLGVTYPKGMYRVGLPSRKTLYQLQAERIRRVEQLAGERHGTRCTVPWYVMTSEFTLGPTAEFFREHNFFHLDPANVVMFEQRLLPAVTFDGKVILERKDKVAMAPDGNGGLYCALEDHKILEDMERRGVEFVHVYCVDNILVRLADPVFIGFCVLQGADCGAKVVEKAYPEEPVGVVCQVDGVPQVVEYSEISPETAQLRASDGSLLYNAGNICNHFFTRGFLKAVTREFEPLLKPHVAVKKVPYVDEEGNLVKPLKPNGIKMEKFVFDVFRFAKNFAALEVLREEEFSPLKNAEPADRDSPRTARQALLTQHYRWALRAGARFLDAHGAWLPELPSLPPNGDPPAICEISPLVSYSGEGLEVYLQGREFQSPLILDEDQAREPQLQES
UniProt O43156, whole entry, looked up: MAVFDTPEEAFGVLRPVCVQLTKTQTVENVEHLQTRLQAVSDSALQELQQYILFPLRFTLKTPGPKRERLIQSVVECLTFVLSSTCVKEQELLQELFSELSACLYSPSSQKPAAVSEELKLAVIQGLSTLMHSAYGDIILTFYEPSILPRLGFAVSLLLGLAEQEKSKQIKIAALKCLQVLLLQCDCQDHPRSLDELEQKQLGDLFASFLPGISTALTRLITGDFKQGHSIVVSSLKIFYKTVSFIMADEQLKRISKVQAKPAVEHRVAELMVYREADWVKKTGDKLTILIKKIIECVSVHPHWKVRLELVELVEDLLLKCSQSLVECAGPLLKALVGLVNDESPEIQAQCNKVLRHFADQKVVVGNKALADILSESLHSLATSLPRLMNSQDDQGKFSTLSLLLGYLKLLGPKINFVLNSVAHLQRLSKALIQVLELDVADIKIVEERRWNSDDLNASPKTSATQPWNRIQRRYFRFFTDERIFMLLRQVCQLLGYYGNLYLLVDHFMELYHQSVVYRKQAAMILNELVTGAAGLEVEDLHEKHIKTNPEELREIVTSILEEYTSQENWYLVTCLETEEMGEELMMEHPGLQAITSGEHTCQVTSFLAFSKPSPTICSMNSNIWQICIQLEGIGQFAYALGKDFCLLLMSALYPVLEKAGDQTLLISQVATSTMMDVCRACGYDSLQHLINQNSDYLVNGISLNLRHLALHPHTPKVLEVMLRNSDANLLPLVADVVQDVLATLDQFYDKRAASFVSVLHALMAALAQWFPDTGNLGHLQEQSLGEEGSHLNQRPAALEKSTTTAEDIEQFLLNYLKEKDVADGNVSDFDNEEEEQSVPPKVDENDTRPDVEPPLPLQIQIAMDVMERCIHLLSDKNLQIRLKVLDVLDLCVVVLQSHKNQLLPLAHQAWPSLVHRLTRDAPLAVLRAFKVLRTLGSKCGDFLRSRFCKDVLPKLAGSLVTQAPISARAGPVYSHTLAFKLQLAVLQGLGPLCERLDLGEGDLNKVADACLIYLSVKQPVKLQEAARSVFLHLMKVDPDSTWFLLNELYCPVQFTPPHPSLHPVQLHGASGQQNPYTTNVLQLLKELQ
UniProt P51668: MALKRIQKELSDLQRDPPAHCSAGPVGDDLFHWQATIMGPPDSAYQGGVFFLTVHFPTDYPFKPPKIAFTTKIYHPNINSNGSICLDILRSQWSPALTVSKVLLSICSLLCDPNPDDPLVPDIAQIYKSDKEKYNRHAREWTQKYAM
UniProt Q16222: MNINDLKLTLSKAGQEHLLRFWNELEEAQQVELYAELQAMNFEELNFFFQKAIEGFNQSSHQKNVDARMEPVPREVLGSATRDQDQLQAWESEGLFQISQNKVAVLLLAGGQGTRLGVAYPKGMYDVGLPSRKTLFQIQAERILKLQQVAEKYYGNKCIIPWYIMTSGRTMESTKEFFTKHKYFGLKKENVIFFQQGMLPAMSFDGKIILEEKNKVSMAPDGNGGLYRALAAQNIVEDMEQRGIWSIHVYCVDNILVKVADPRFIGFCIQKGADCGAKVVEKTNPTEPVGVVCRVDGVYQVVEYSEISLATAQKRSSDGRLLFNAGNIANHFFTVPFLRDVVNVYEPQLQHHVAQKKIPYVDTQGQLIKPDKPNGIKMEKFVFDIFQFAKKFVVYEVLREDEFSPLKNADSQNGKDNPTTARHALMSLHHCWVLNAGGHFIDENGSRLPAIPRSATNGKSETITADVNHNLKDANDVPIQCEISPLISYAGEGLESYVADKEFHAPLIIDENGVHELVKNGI
UniProt Q86TV6: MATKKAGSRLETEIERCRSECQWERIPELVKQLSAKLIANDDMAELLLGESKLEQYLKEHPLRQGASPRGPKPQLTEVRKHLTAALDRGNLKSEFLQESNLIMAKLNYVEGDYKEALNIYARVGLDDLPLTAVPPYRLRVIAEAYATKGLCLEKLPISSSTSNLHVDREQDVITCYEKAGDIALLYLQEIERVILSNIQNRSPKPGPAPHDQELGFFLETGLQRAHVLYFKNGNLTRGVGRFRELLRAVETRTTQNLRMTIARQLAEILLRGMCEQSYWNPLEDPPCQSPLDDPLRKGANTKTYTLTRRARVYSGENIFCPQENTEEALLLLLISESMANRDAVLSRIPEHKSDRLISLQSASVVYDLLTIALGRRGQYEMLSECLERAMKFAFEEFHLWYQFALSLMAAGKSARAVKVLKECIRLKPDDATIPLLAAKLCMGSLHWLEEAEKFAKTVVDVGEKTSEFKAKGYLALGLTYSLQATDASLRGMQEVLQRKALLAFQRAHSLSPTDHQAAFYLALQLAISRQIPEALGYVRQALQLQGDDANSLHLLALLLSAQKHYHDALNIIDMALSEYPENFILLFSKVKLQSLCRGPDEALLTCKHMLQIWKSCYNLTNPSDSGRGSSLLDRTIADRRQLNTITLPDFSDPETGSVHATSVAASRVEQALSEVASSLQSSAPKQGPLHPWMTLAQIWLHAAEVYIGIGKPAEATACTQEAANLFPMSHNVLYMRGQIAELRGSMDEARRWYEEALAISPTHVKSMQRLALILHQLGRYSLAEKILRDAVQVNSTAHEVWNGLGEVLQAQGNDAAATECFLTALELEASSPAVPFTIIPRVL
UniProt Q6NXR4: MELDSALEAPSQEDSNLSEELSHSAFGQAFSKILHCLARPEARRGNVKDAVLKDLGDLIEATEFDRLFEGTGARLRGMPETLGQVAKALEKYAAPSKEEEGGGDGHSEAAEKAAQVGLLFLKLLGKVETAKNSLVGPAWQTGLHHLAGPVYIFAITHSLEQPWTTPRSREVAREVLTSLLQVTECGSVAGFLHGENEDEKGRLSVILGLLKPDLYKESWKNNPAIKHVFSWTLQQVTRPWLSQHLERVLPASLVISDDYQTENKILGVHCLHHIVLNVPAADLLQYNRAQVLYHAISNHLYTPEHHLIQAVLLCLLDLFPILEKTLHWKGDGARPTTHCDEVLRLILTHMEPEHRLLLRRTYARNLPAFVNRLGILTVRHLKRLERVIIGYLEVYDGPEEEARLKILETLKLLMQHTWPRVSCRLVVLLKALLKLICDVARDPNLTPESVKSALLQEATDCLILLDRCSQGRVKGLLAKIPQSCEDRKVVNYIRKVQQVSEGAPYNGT
UniProt Q5TAX3: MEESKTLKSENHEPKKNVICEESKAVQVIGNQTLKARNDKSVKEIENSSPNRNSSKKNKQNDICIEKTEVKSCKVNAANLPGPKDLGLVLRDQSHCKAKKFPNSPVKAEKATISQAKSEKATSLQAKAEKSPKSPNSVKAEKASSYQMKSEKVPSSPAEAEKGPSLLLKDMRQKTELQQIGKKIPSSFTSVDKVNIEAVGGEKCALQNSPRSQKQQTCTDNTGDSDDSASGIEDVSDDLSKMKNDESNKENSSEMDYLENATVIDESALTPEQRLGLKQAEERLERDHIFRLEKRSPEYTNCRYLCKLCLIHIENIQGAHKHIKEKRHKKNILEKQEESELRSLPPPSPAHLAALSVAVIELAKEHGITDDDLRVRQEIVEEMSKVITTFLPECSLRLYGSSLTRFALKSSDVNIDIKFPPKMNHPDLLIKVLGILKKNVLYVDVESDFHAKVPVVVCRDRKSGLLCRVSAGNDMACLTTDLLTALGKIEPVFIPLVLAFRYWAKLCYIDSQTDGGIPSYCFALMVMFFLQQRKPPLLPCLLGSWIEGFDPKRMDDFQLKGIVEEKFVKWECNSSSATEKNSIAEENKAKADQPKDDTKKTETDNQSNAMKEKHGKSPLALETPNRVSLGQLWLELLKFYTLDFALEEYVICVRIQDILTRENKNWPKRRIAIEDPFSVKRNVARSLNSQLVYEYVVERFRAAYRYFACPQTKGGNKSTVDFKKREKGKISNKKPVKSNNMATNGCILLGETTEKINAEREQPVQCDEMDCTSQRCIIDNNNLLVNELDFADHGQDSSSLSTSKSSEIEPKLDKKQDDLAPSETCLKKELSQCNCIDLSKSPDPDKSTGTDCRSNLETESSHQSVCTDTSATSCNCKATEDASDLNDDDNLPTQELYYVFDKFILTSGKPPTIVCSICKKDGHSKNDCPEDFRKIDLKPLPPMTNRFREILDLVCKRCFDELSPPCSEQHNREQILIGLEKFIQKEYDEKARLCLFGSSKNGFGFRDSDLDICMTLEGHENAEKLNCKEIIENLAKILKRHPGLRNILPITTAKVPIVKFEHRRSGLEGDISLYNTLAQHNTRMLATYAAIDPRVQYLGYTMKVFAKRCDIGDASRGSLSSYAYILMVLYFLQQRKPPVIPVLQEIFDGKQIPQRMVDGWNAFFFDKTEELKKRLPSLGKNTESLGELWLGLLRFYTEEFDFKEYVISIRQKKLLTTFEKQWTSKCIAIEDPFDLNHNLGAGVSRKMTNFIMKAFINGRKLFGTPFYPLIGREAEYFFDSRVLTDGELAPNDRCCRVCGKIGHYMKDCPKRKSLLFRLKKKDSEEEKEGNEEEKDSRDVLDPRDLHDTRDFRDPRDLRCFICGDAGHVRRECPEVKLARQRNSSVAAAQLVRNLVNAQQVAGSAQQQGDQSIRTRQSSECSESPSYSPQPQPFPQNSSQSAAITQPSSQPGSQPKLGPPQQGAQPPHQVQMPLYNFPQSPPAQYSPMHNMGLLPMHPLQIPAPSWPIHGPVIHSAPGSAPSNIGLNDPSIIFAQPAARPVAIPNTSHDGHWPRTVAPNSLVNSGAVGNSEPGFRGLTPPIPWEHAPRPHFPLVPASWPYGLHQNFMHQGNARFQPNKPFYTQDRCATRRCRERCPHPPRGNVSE
UniProt Q9BRA2: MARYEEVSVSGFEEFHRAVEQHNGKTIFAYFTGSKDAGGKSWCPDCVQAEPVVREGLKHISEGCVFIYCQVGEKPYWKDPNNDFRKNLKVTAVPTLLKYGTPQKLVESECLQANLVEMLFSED
UniProt Q99757: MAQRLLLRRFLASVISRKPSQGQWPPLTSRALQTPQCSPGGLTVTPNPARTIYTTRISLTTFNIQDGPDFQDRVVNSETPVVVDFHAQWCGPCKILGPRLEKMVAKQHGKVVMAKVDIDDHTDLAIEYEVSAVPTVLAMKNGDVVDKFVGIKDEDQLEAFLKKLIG
UniProt P68036, whole entry, looked up: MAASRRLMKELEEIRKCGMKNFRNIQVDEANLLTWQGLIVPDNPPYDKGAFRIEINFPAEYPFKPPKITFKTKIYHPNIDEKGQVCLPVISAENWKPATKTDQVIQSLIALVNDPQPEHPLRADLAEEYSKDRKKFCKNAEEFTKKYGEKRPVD
UniProt Q16763: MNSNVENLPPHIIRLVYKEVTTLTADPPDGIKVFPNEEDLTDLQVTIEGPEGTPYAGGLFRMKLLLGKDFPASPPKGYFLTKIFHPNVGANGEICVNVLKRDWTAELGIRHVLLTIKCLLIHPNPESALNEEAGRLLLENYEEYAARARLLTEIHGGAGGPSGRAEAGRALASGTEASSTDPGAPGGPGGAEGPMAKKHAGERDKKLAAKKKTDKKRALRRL
UniProt P49459, whole entry, looked up: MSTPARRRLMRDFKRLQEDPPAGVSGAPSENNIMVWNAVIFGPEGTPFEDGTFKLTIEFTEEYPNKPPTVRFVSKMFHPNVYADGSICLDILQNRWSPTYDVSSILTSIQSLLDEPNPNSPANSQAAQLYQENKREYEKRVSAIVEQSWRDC
UniProt P10599: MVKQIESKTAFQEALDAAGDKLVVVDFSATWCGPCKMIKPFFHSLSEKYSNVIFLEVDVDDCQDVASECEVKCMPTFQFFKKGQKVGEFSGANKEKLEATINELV
UniProt P61077: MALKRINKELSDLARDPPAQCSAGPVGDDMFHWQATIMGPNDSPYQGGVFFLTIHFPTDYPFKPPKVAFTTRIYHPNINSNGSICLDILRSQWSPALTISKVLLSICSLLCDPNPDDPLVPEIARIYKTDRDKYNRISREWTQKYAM

[2] = compound: CC1=C(SC2=C1C(=N[C@H](C3=NN=C(N32)C)CC(=O)N)C4=CC=C(C=C4)Cl)C
Outline: as §1

[3] = compound: CC1=C2C(=CC=C1)N=C(N(C2=O)C3=CC=CC=C3C)CN4C=NC5=C(N=CN=C54)N
Outline: as §1

[4] = compound: Cc1sc2c(c1C)C(c1ccc(Cl)cc1)=N[C@@H](CC(=O)OC(C)(C)C)c1nnc(C)n1-2
Outline: as §1

[5] = compound: c1ccc([C@@H]2C[C@H]2NC2CCNCC2)cc1
Outline: as §1

Measured: log2 fold change

TUBAL3 (UniProt A6NHL2)
inactive: [1] -0.196 | [2] -0.012 | [3] 0.096 | [4] -0.051 | [5] 0.029

TTC9C (UniProt Q8N5M4)
inactive: [1] 0.018 | [2] 0.036 | [3] -0.013 | [4] -0.058 | [5] -0.041

TUBB4A (UniProt M0QYM7)
inactive: [1] -0.091 | [2] 0.184 | [3] 0.378 | [4] 0.178 | [5] -0.059

UBE2O (UniProt Q9C0C9)
inactive: [1] 0.006 | [2] 0.072 | [3] 0.069 | [4] 0.004 | [5] -0.024

TSPAN14 (UniProt Q8NG11)
inactive: [1] -0.034 | [2] 0.086 | [3] 0.045 | [4] -0.003 | [5] 0.092

TUSC3 isoform 2 (UniProt Q13454)
inactive: [1] 0.173 | [2] -0.033 | [3] 0.008 | [4] 0.105 | [5] 0.051

TSSC4 (UniProt Q9Y5U2)
inactive: [1] 0.002 | [2] -0.119 | [3] 0.015 | [4] 0.044 | [5] 0.03

UBAC2 (UniProt Q8NBM4)
inactive: [1] -0.09 | [2] 0.01 | [3] 0.043 | [4] -0.126 | [5] -0.03

UAP1L1 (UniProt Q3KQV9)
inactive: [1] -0.033 | [2] 0.134 | [3] 0.034 | [4] 0.034 | [5] 0.002

TUBB6 (UniProt K7ES63)
inactive: [1] -0.057 | [2] 0.193 | [3] 0.064 | [4] 0.105 | [5] 0.19

TXNDC11 (UniProt Q6PKC3)
inactive: [1] 0.043 | [2] 0.026 | [3] -0.032 | [4] -0.031 | [5] -0.01

TUBA1B (UniProt P68363)
inactive: [1] -0.034 | [2] 0.031 | [3] -0.003 | [4] 0.001 | [5] 0.026

TYMS (UniProt P04818)
inactive: [1] 0.019 | [2] 0.026 | [3] -0.026 | [4] -0.077 | [5] -0.031

TSTA3 (UniProt Q13630)
inactive: [1] -0.023 | [2] -0.012 | [3] 0.011 | [4] 0.012 | [5] 0.029

TTI1 (UniProt O43156)
inactive: [1] -0.034 | [2] 0.136 | [3] 0.022 | [4] -0.025 | [5] -0.085

TUBA4A (UniProt P68366)
inactive: [1] -0.02 | [2] 0.077 | [3] -0.03 | [4] -0.01 | [5] -0.076

UBE2D1 (UniProt P51668)
inactive: [1] -0.053 | [2] -0.014 | [3] 0.065 | [4] -0.081 | [5] -0.035

TXNL4B (UniProt Q9NX01)
inactive: [1] 0.1 | [2] 0.068 | [4] -0.102 | [5] -0.12
active: [3] -0.537

UBAC1 (UniProt Q9BSL1)
inactive: [1] -0.03 | [2] 0.028 | [3] 0.05 | [4] 0.022 | [5] -0.032

TUBA3C (UniProt P0DPH7)
inactive: [1] -0.076 | [2] 0.112 | [3] -0.001 | [4] -0.025 | [5] -0.037

TTL (UniProt Q8NG68)
inactive: [1] -0.01 | [2] 0.08 | [3] 0.024 | [4] -0.051 | [5] -0.024

TUBGCP2 isoform 4 (UniProt Q9BSJ2)
inactive: [1] 0.014 | [2] -0.219 | [3] -0.156 | [4] 0 | [5] 0.011

TTC38 (UniProt Q5R3I4)
inactive: [1] 0.046 | [2] 0.049 | [3] 0.032 | [4] -0.061 | [5] -0.016

UBA1 (UniProt P22314)
inactive: [1] -0.162 | [2] 0.044 | [3] 0.134 | [4] 0.044 | [5] -0.08

UBE2NL (UniProt Q5JXB2)
inactive: [1] -0.031 | [2] 0.119 | [3] 0.061 | [4] -0.12 | [5] -0.02

UAP1 (UniProt Q16222)
inactive: [1] -0.007 | [2] 0.041 | [3] 0.047 | [4] -0.008 | [5] -0.033

TTC7B isoform 2 (UniProt Q86TV6)
inactive: [1] -0.367 | [2] -0.083 | [3] 0.099 | [4] -0.006 | [5] -0.12

TTI2 (UniProt Q6NXR4)
inactive: [1] 0.07 | [2] 0.027 | [3] 0.031 | [4] 0.028 | [5] 0.041

TUT4 (UniProt Q5TAX3)
inactive: [1] -0.029 | [2] -0.181 | [3] 0.214 | [4] -0.052 | [5] 0.153

TXNDC17 (UniProt Q9BRA2)
inactive: [1] 0.054 | [2] 0.032 | [3] 0.026 | [4] -0.021 | [5] -0.001

TUBB2A (UniProt Q13885)
inactive: [1] -0.066 | [2] -0.054 | [3] 0.028 | [4] -0.018 | [5] -0.042

TXLNG (UniProt Q9NUQ3)
inactive: [1] -0.023 | [2] 0.014 | [3] 0.049 | [4] 0 | [5] 0.036

TXN2 (UniProt Q99757)
inactive: [1] 0.027 | [2] 0.144 | [3] 0.039 | [4] -0.079 | [5] -0.067

UBE2G2 (UniProt P60604)
inactive: [1] 0 | [2] 0.147 | [3] -0.056 | [4] -0.317 | [5] -0.039

UBE2L3 isoform 3 (UniProt P68036)
inactive: [1] 0.015 | [2] 0.059 | [3] 0.011 | [4] -0.004 | [5] -0.019

UBE2S (UniProt Q16763)
inactive: [1] 0.002 | [2] 0.053 | [3] 0.106 | [4] 0 | [5] 0.013

UBAP2L isoform 1 (UniProt Q14157)
inactive: [1] 0.038 | [2] 0.004 | [3] 0.059 | [4] 0.001 | [5] 0.011

UBE2A (UniProt P49459)
inactive: [1] 0.023 | [2] 0.037 | [3] 0.043 | [4] 0.047 | [5] -0.085

TTC27 (UniProt Q6P3X3)
inactive: [1] 0 | [2] -0.106 | [3] 0.072 | [4] 0.052 | [5] 0.01

TSN (UniProt Q15631)
inactive: [1] -0.005 | [2] 0.01 | [3] -0.024 | [4] -0.055 | [5] 0.002

TXN (UniProt P10599)
inactive: [1] -0.068 | [2] -0.028 | [3] -0.066 | [4] 0.011 | [5] 0.04

Two successive records from above, quoted:
UAP1 (UniProt Q16222)
inactive: [1] -0.007 | [2] 0.041 | [3] 0.047 | [4] -0.008 | [5] -0.033

TTC7B isoform 2 (UniProt Q86TV6)
inactive: [1] -0.367 | [2] -0.083 | [3] 0.099 | [4] -0.006 | [5] -0.12

Next records:

TUBB6 (UniProt Q9BUF5)
inactive: [1] 0.002 | [2] 0.041 | [3] 0.005 | [4] -0.023 | [5] -0.001

TTN isoform 12 (UniProt Q8WZ42)
inactive: [1] 0.038 | [2] 0.02 | [3] 0.255 | [4] 0.042 | [5] 0.019

UBE2H (UniProt P62256)
inactive: [1] 0.032 | [2] 0.044 | [3] 0.051 | [4] 0.05 | [5] 0.071

UBAP1 isoform 4 (UniProt Q9NZ09)
inactive: [1] 0.021 | [2] 0.005 | [3] 0.129 | [4] -0.171 | [5] -0.072

UBE2D3 isoform 3 (UniProt P61077)
inactive: [1] -0.032 | [2] 0.097 | [3] 0.057 | [4] -0.023 | [5] 0.003

TWF1 (UniProt Q12792)
inactive: [1] -0.013 | [2] 0.041 | [3] 0.057 | [4] -0.017 | [5] -0.106

TUBB3 (UniProt Q13509)
inactive: [1] 0.011 | [2] 0.029 | [3] -0.02 | [4] -0.021 | [5] -0.006

U2AF2 (UniProt P26368)
inactive: [1] -0.004 | [2] 0.057 | [3] 0.045 | [4] 0.044 | [5] 0.005

TSR3 (UniProt Q9UJK0)
inactive: [1] 0.053 | [2] -0.048 | [3] -0.022 | [4] 0.012 | [5] 0.074

TUBB4B (UniProt P68371)
inactive: [1] 0.006 | [2] 0.067 | [3] -0.018 | [4] -0.029 | [5] -0.036

TSR2 (UniProt Q969E8)
inactive: [1] 0.01 | [2] 0.018 | [3] 0.025 | [4] -0.018 | [5] -0.011

TUBB2B (UniProt Q9BVA1)
inactive: [1] -0.038 | [2] -0.034 | [3] 0.024 | [4] -0.024 | [5] -0.057

— the supplement of paper PMC10849652
